Data on six compounds can be found in the supplement of paper PMC4604168 (melanoma cell lines).

The list shows a part of the results. Single values are uncertain, as repeats are few or missing.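 Imaging used 1,536-well plates; nuclei positive for cleaved PARP by antibody were divided by total DNA-stained nuclei to yield the apoptosis fraction. Doses for screening kept most cells viable, and cell lines differ markedly in resting and induced cleaved-PARP levels.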

This test concerns COLO800. The experiment in a line: cleaved PARP positive nuclei fraction relative to DMSO control; melanoma cells; higher = more apoptosis. To be noted: library dose: low library concentration; 72 h.
As to `COc1ccc(-c2ccc3c(N4CCOCC4)nc(N4C[C@@H](C)O[C@@H](C)C4)nc3n2)cc1CO` + CCN(CC)CCCCNc1ncc2cc(-c3cc(OC)cc(OC)c3)c(NC(=O)NC(C)(C)C)nc2n1 [PD173074] (first compound 0.02 µM, partner dose 0.1 µM), the “cleaved PARP positive nuclei fraction” value was determined as 141%.

In the case of `Oc1cc(-c2nc(-c3ccccc3)[nH]c2-c2ccncc2)ccc1Cl` + O=C1NC(=O)/C(=C/c2ccc(-c3ccc(F)cc3O)o2)S1 [AS252424] (first compound 0.2 µM, partner dose 1 µM), the “cleaved PARP positive nuclei fraction” value stood at 80.9%. As for `CCc1ccc(CCOc2ccc(CC3SC(=O)NC3=O)cc2)nc1` (stereo unspecified) [pioglitazone] + O=C(Nc1ccccc1)c1cc([N+](=O)[O-])ccc1Cl [GW9662] (first compound 2 µM, partner dose 2 µM), the “cleaved PARP positive nuclei fraction” value worked out at 294%. In the case of `COc1ccc2c(c1)CCC1C2CCC2(C)C(NCCCCCCN3C(=O)C=CC3=O)CCC12` (stereo unspecified) + O=C(O)C(=O)Nc1sc2c(c1C(=O)O)CCNC2 [TCS401] (first compound 0.4 µM, partner dose 1.66667 µM), the “cleaved PARP positive nuclei fraction” value worked out at 69.6%.

With `CN(C)S(=O)(=O)c1ccc2c(c1)/C(=C/c1cc3c([nH]1)CCCC3)C(=O)N2` + COc1cc(N2CCC(N3CCN(C)CC3)CC2)ccc1Nc1ncc(Cl)c(Nc2ccccc2S(=O)(=O)C(C)C)n1 [NVP-TAE684] (first compound 0.4 µM, partner dose 0.08 µM), the “cleaved PARP positive nuclei fraction” value came out at 93.3%. Regarding `CN(C)S(=O)(=O)c1ccc2c(c1)/C(=C/c1cc3c([nH]1)CCCC3)C(=O)N2` + N#Cc1c(O)c2c(-c3ccc(-c4ccccc4O)cc3)csc2[nH]c1=O [A769662] (first compound 0.4 µM, partner dose 2 µM), the “cleaved PARP positive nuclei fraction” value amounted to 93.3%.
